Values of other authors in patent publication US12263323B2, “Methods for treating baldness and promoting hair growth” (FOLLICA, INC., priority 2010, dated 2025).
Some entries share one result that the patent states for a list of compounds.

Tested on: human subjects
Details: in vivo

Compound: CC(C)(C)NC(=O)[C@H]1CC[C@H]2[C@@H]3CC[C@H]4NC(=O)C=C[C@]4(C)[C@H]3CC[C@]12C [finasteride]
- Time after ceasing therapy within which the hair gained or maintained is lost: 6-12 months

Compound: Nc1cc(N2CCCCC2)nc(N)[n+]1[O-] [minoxidil]
- Time after ceasing therapy within which the hair gained or maintained is lost: 6-12 months
